Results reported in ChEMBL document CHEMBL5674883, “The Heterochromatin Landscape in Migrating Cells and the Importance of H3K27me3 for Associated Transcriptome Alterations” (Cells, 2018).
Further values from the same series stand in other lists.

By UniProt entry, the sequences of proteins in these tests, tags left out.
UniProt Q61188, whole entry: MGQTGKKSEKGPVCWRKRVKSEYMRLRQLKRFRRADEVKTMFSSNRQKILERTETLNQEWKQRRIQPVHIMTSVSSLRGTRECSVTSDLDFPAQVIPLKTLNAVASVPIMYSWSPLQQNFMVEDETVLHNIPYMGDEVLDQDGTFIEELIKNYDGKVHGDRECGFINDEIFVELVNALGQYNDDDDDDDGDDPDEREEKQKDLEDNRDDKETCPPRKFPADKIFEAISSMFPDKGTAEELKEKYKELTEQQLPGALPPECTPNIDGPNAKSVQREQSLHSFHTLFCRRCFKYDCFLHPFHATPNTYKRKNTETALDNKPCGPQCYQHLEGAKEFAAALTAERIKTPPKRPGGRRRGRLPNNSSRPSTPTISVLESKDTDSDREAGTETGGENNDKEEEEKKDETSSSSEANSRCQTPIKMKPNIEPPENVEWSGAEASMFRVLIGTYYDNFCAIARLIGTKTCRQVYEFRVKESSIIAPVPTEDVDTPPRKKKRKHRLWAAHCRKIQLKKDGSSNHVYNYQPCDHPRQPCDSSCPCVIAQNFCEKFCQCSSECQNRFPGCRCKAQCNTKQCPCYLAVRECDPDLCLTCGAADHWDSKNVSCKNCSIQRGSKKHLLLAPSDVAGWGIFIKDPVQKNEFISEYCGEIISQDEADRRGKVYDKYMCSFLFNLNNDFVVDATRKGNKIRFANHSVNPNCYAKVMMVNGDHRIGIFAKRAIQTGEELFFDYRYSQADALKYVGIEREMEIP

Tests used:
Assay type in all cases: cell-based
[1] = molecular target: T1, RNA polymerase II (Mus musculus) (UniProt P08775+Q8CFI7+P97760+A0A3Q4L2S8+Q80UW8+P61219+P62488+Q923G2+P60898+O08740+Q63871+P62876); assay: Inhibition of RNA polymerase II in mouse B16-F1 migrating cells assessed as fold change in 2610306M01Rik-RNA stability at 0.1 mM measured by ChIP-seq analysis relative to control cells
[2] = molecular target: T1, RNA polymerase II (Mus musculus); assay: Inhibition of RNA polymerase II in mouse B16-F1 migrating cells assessed as fold change in Plekhb2-RNA stability at 0.1 mM measured by ChIP-seq analysis relative to control cells
[3] = molecular target: T1, RNA polymerase II (Mus musculus); assay: Inhibition of RNA polymerase II in mouse B16-F1 migrating cells assessed as fold change in Rps13-RNA stability at 0.1 mM measured by ChIP-seq analysis relative to control cells
[4] = molecular target: T1, RNA polymerase II (Mus musculus); assay: Inhibition of RNA polymerase II in mouse B16-F1 migrating cells assessed as fold change in Abhd8-RNA stability at 0.1 mM measured by ChIP-seq analysis relative to control cells
[5] = molecular target: T1, RNA polymerase II (Mus musculus); assay: Inhibition of RNA polymerase II in mouse B16-F1 migrating cells assessed as fold change in Csnk1g2-RNA stability at 0.1 mM measured by ChIP-seq analysis relative to control cells
[6] = molecular target: T1, RNA polymerase II (Mus musculus); assay: Inhibition of RNA polymerase II in mouse B16-F1 migrating cells assessed as fold change in Lrp10-RNA stability at 0.1 mM measured by ChIP-seq analysis relative to control cells
[7] = molecular target: T1, RNA polymerase II (Mus musculus); assay: Inhibition of RNA polymerase II in mouse B16-F1 migrating cells assessed as fold change in Pds5a-RNA stability at 0.1 mM measured by ChIP-seq analysis relative to control cells
[8] = molecular target: T1, RNA polymerase II (Mus musculus); assay: Inhibition of RNA polymerase II in mouse B16-F1 migrating cells assessed as fold change in Slc25a40-RNA stability at 0.1 mM measured by ChIP-seq analysis relative to control cells
[9] = molecular target: T1, RNA polymerase II (Mus musculus); assay: Inhibition of RNA polymerase II in mouse B16-F1 migrating cells assessed as fold change in Matr3-RNA stability at 0.1 mM measured by ChIP-seq analysis relative to control cells
[10] = molecular target: T1, RNA polymerase II (Mus musculus); assay: Inhibition of RNA polymerase II in mouse B16-F1 migrating cells assessed as fold change in Rad17-RNA stability at 0.1 mM measured by ChIP-seq analysis relative to control cells
[11] = molecular target: T1, RNA polymerase II (Mus musculus); assay: Inhibition of RNA polymerase II in mouse B16-F1 migrating cells assessed as fold change in Pik3ca-RNA stability at 0.1 mM measured by ChIP-seq analysis relative to control cells
[12] = molecular target: T1, RNA polymerase II (Mus musculus); assay: Inhibition of RNA polymerase II in mouse B16-F1 migrating cells assessed as fold change in Map3k20-RNA stability at 0.1 mM measured by ChIP-seq analysis relative to control cells
[13] = molecular target: T1, RNA polymerase II (Mus musculus); assay: Inhibition of RNA polymerase II in mouse B16-F1 migrating cells assessed as fold change in C1galt1-RNA stability at 0.1 mM measured by ChIP-seq analysis relative to control cells
[14] = molecular target: T1, RNA polymerase II (Mus musculus); assay: Inhibition of RNA polymerase II in mouse B16-F1 migrating cells assessed as fold change in Clasp2-RNA stability at 0.1 mM measured by ChIP-seq analysis relative to control cells
[15] = molecular target: Histone-lysine N-methyltransferase EZH2 (Mus musculus) (UniProt Q61188); assay: Inhibition of EZH2 in mouse B16-F1 migrating cells assessed as fold change in H3K27me3-buffered regulated Map3k8-mRNA expression at 3 uM measured by ChIP-seq analysis relative to control cells
[16] = molecular target: Histone-lysine N-methyltransferase EZH2 (Mus musculus) (UniProt Q61188); assay: Inhibition of EZH2 in mouse B16-F1 migrating cells assessed as fold change in H3K27me3-independent regulated Zfp292-mRNA expression at 3 uM measured by ChIP-seq analysis relative to control cells
[17] = molecular target: Histone-lysine N-methyltransferase EZH2 (Mus musculus) (UniProt Q61188); assay: Inhibition of EZH2 in mouse B16-F1 migrating cells assessed as fold change in H3K27me3-buffered regulated Bckdha-mRNA expression at 3 uM measured by ChIP-seq analysis relative to control cells
[18] = molecular target: Histone-lysine N-methyltransferase EZH2 (Mus musculus) (UniProt Q61188); assay: Inhibition of EZH2 in mouse B16-F1 migrating cells assessed as fold change in H3K27me3-buffered regulated Phldb2-mRNA expression at 3 uM measured by ChIP-seq analysis relative to control cells
[19] = molecular target: Histone-lysine N-methyltransferase EZH2 (Mus musculus) (UniProt Q61188); assay: Inhibition of EZH2 in mouse B16-F1 migrating cells assessed as fold change in H3K27me3-independent regulated Hmox1-mRNA expression at 3 uM measured by ChIP-seq analysis relative to control cells
[20] = molecular target: Histone-lysine N-methyltransferase EZH2 (Mus musculus) (UniProt Q61188); assay: Inhibition of EZH2 in mouse B16-F1 migrating cells assessed as fold change in H3K27me3-buffered regulated Kctd12-mRNA expression at 3 uM measured by ChIP-seq analysis relative to control cells
[21] = molecular target: Histone-lysine N-methyltransferase EZH2 (Mus musculus) (UniProt Q61188); assay: Inhibition of EZH2 in mouse B16-F1 migrating cells assessed as fold change in H3K27me3-buffered regulated Filip1l-mRNA expression at 3 uM measured by ChIP-seq analysis relative to control cells
[22] = molecular target: Histone-lysine N-methyltransferase EZH2 (Mus musculus) (UniProt Q61188); assay: Inhibition of EZH2 in mouse B16-F1 migrating cells assessed as fold change in H3K27me3-independent regulated Bmt2-mRNA expression at 3 uM measured by ChIP-seq analysis relative to control cells
[23] = molecular target: Histone-lysine N-methyltransferase EZH2 (Mus musculus) (UniProt Q61188); assay: Inhibition of EZH2 in mouse B16-F1 migrating cells assessed as fold change in H3K27me3-independent regulated Fam162a-mRNA expression at 3 uM measured by ChIP-seq analysis relative to control cells
[24] = molecular target: Histone-lysine N-methyltransferase EZH2 (Mus musculus) (UniProt Q61188); assay: Inhibition of EZH2 in mouse B16-F1 migrating cells assessed as fold change in H3K27me3-buffered regulated Lmna-mRNA expression at 3 uM measured by ChIP-seq analysis relative to control cells
[25] = molecular target: Histone-lysine N-methyltransferase EZH2 (Mus musculus) (UniProt Q61188); assay: Inhibition of EZH2 in mouse B16-F1 migrating cells assessed as fold change in H3K27me3-buffered regulated Gm23130-mRNA expression at 3 uM measured by ChIP-seq analysis relative to control cells
[26] = molecular target: Histone-lysine N-methyltransferase EZH2 (Mus musculus) (UniProt Q61188); assay: Inhibition of EZH2 in mouse B16-F1 migrating cells assessed as fold change in H3K27me3-buffered regulated Adamts14-mRNA expression at 3 uM measured by ChIP-seq analysis relative to control cells
[27] = molecular target: Histone-lysine N-methyltransferase EZH2 (Mus musculus) (UniProt Q61188); assay: Inhibition of EZH2 in mouse B16-F1 migrating cells assessed as fold change in H3K27me3-buffered regulated Itgb3-mRNA expression at 3 uM measured by ChIP-seq analysis relative to control cells
[28] = molecular target: Histone-lysine N-methyltransferase EZH2 (Mus musculus) (UniProt Q61188); assay: Inhibition of EZH2 in mouse B16-F1 migrating cells assessed as fold change in H3K27me3-buffered regulated Trim71-mRNA expression at 3 uM measured by ChIP-seq analysis relative to control cells
[29] = molecular target: Histone-lysine N-methyltransferase EZH2 (Mus musculus) (UniProt Q61188); assay: Inhibition of EZH2 in mouse B16-F1 migrating cells assessed as fold change in H3K27me3-independent regulated Prss46-mRNA expression at 3 uM measured by ChIP-seq analysis relative to control cells

## OC[C@H]1O[C@@H](n2cnc3cc(Cl)c(Cl)cc32)[C@H](O)[C@@H]1O
[1]
  log2FC: 0.9
[2]
  log2FC: 0.39
[3]
  log2FC: 0.48
[4]
  log2FC: 0.41
[5]
  log2FC: 0.39
[6]
  log2FC: 0.57
[7]
  log2FC: -0.58
[8]
  log2FC: -0.63
[9]
  log2FC: -0.85
[10]
  log2FC: -0.47
[11]
  log2FC: -0.46
[12]
  log2FC: -0.47
[13]
  log2FC: -0.5
[14]
  log2FC: -0.42

## CCCc1cc(C)[nH]c(=O)c1CNC(=O)c1cc(-c2ccnc(N3CCN(C)CC3)c2)cc2c1cnn2C(C)C
[15]
  log2FC: -1.37
[16]
  log2FC: -0.53
[17]
  log2FC: 0.42
[18]
  log2FC: -0.54
[19]
  log2FC: 0.71
[20]
  log2FC: 0.57
[21]
  log2FC: -0.78
[22]
  log2FC: -0.69
[23]
  log2FC: 0.57
[24]
  log2FC: 0.53
[25]
  log2FC: -1.5
[26]
  log2FC: 0.45
[27]
  log2FC: 0.43
[28]
  log2FC: -0.61
[29]
  log2FC: 1.38
